These are yes or no findings as the source states them, for the method shown.
Molecular target: recombinant KIF21B rCC (residues 930–1010) (human) (UniProt O75037)
Test: AUC; sedimentation velocity, 20°C, 42,000 rpm, Tris-HCl pH 7.5, 150 mM NaCl, 2 mM DTT, three different protein concentrations; both purified

B1: recombinant KIF21B rCC (residues 930–1010) (domain or fragment, UniProt O75037 930-1010)
chain: RMTIVNLEADMERLIKKREELFLLQEALRRKRERLQAESPEEEKGLQELAEEIEVLAANIDYINDGITDCQATIVQLEETK
With B1 as the binder, how does the binding read?
The binding was “no binding”.

— PMC5383399, “Kinesin-4 KIF21B is a potent microtubule pausing factor” (eLife, 2017)
